Measured values: PubChem BioAssay AID308 (DTP/NCI, 2004)
The list is a part of this screen's results and no random one: it gathers tests that were run many times, whatever their T/C, doses with no T/C, and many T/C values between a quarter and a half above the control. Other doses and runs of a compound stand elsewhere. T/C: endpoint of the treated group in % of that of the vehicle group. Some doses have a count of surviving animals in place of a T/C: the source files T/C as zero there, which appears to mark a toxic dose or a test without result, not a measured value. Some survivor counts are full or nearly so, which does not show that the dose was tolerated: survival well below the control is almost never listed, so the zero probably covers shortened survival too. Survivors were counted at the toxicity check, usually on the fifth day, unless a day is given; later deaths do not show. Schedules are NCI's codes, read here as Q, the interval in days (D) or hours (H), X, the number of doses. Some schedules carry Z or #; the key to these is not given. Where survival is the endpoint, the PubChem record calls one and a half times the control and up active, and a quarter to a half above the control has no call in these data; cut-offs in other NCI protocols can differ. Some entries hold several experiments; the values are given in rising order. Some T/C values carry the count of animals alive at the toxicity check (mostly the fifth day); without a count, all were alive then.

System: BDF1 mice, L1210 6-MP/6-TG resistant leukemia ip, survival T/C
Assay: NCI In Vivo Anticancer Drug Screen. Data for tumor model L1210 Leukemia resistant to 6-MP and 6-Thioguanine; NSC 755, NSC 752 (intraperitoneal) in B6D2F1 (BDF1) mice
Conditions: T/C endpoint: mean survival time, higher T/C = longer survival
Protocol: The antitumor activity of compounds was measured in mice bearing transplantable tumors. Survival or tumor size were measured and the results are expressed as the measurement made in the treated group (T) divided by the measurement made in the vehicle treated control group (C). The tumor model used in this assay is L1210 Leukemia resistant to 6-MP and 6-Thioguanine; NSC 755, NSC 752 (intraperitoneal) in B6D2F1 (BDF1) mice

[1] = dose: 50.0 mg/kg/injection, schedule: Q01DX Z (ip), vehicle: carboxymethylcellulose (CMC)
[2] = dose: 100.0 mg/kg/injection, schedule: Q01DX Z (ip), vehicle: carboxymethylcellulose (CMC)
[3] = dose: 150.0 mg/kg/injection, schedule: Q01DX Z (ip), vehicle: carboxymethylcellulose (CMC)

`O=C(Nc1ccc(C2=NCCCN2)cc1)c1ccc(C(=O)Nc2ccc(C3=NCCCN3)cc2)cc1` was tested, and the T/C (dose: 0.93 mg/kg/injection, schedule: Q01DX Z (ip), vehicle: carboxymethylcellulose (CMC)) was 139 % of control, the survivor count (dose: 30.0 mg/kg/injection, schedule: Q01DX Z (ip), vehicle: carboxymethylcellulose (CMC)) was 6 of 6 and the survivor count [1] was 0 of 6. For the same molecule, the survivor count (dose: 75.0 mg/kg/injection, schedule: Q01DX Z (ip), vehicle: carboxymethylcellulose (CMC)) was 0 of 6, the survivor count [2] was 0 of 6 and the survivor count [3] was 0 of 6.
With `CCSc1ncc(Br)c(Sc2nc(N)nc3nc[nH]c23)n1` the survivor count (dose: 25.0 mg/kg/injection, schedule: Q01DX Z (ip), vehicle: carboxymethylcellulose (CMC)) was 9 of 9, the survivor count [1] was 10 of 10 and the survivor count [2] was 9 of 10. For the same molecule, the survivor count (dose: 200.0 mg/kg/injection, schedule: Q01DX Z (ip), vehicle: carboxymethylcellulose (CMC)) was 10 of 10.
With `C1CN1c1nc(N2CC2)nc(N2CC2)n1` the T/C (dose: 0.5 mg/kg/injection, schedule: Q01DX Z (ip), vehicle: saline) was 149 % of control [5 of 6 alive] and the T/C (dose: 0.75 mg/kg/injection, schedule: Q01DX Z (ip), vehicle: saline) was 133 % of control.
`CC(C)Cn1cnc2c(Sc3c([N+](=O)[O-])ncn3C)nc(N)nc21` was tested, and the T/C (dose: 4.0 mg/kg/injection, schedule: Q01DX015 (ip), vehicle: other) was 125 % of control and the survivor count (dose: 100.0 mg/kg/injection, schedule: Q01DX015 (ip), vehicle: other) was 10 of 10.
For `CC(=O)CSc1ncnc2nc[nH]c12`, the survivor count (dose: 500.0 mg/kg/injection, schedule: Q01DX015 (ip), vehicle: carboxymethylcellulose (CMC)) was 2 of 6 and the survivor count (dose: 1000.0 mg/kg/injection, schedule: Q01DX015 (ip), vehicle: carboxymethylcellulose (CMC)) was 0 of 6.
For `CSc1ncnc2c1ncn2CO`, the survivor count (dose: 200.0 mg/kg/injection, schedule: Q01DX009 (ip), vehicle: other) was 3 of 10.
In the case of `Nc1nc(=S)c2[nH]cnc2[nH]1`, the survivor count (dose: 5.0 mg/kg/injection, schedule: Q01DX Z (ip), vehicle: carboxymethylcellulose (CMC)) is reported as 6 of 6 and the survivor count (dose: 10.0 mg/kg/injection, schedule: Q01DX Z (ip), vehicle: carboxymethylcellulose (CMC)) is reported as 6 of 6.
In the case of `c1nc(SC2CCCC2)c2[nH]cnc2n1`, the survivor count (dose: 640.0 mg/kg/injection, schedule: Q01DX Z (ip), vehicle: carboxymethylcellulose (CMC)) is reported as 2 of 6.
In the case of `CC(=O)Nc1ccc2nc3ccc(NC(C)=O)cc3[n+](-c3ccccc3)c2c1`, the T/C (dose: 7.5 mg/kg/injection, schedule: Q01DX Z (ip), vehicle: carboxymethylcellulose (CMC)) is reported as 136 % of control, the T/C (dose: 37.5 mg/kg/injection, schedule: Q01DX Z (ip), vehicle: carboxymethylcellulose (CMC)) is reported as 141 % of control and the T/C [2] is reported as 129 % of control. For the same molecule, the T/C [3] was 129 and 144 % of control.
In the case of `O=C(Nc1ccc(C2=NCCCN2)cc1)c1ccc(NC(=O)c2ccc(C3=NCCCN3)cc2)cc1`, the T/C (dose: 8.0 mg/kg/injection, schedule: Q01DX Z (ip), vehicle: carboxymethylcellulose (CMC)) is reported as 142 % of control and the survivor count (dose: 32.0 mg/kg/injection, schedule: Q01DX Z (ip), vehicle: carboxymethylcellulose (CMC)) is reported as 6 of 6.
In the case of `O=c1[nH]cnc2n[nH]nc12`, the survivor count (dose: 948.0 mg/kg/injection, schedule: Q01DX009 (ip), vehicle: Klucel (hydroxypropylcellulose) (HPC)) is reported as 1 of 10 and the survivor count (dose: 1422.0 mg/kg/injection, schedule: Q01DX009 (ip), vehicle: saline with Tween-80) is reported as 9 of 10.
With `COC12C(COC(N)=O)C3=C(C(=O)C(C)=C(N)C3=O)N1CC1C2N1C` (stereo unspecified) the T/C (dose: 0.5 mg/kg/injection, schedule: Q01DX015 (ip), vehicle: carboxymethylcellulose (CMC)) was 135 % of control, the T/C (dose: 6.7 mg/kg/injection, schedule: Q01DX015 (ip), vehicle: carboxymethylcellulose (CMC)) was 148 % of control and the T/C (dose: 10.0 mg/kg/injection, schedule: Q01DX015 (ip), vehicle: carboxymethylcellulose (CMC)) was 141 % of control.
